This is one part of the list.
What was measured:
Assay in all cases: log2 fold change, soluble protein after heating vs DMSO (PISA); higher = thermal stabilisation; K562 cells, 10 uM, 30 min; active = over 0.2 and 3.5 SD of the protein, either way, in both replicates (recomputed)
saracatinib = compound: CN1CCN(CCOc2cc(OC3CCOCC3)c3c(Nc4c(Cl)ccc5c4OCO5)ncnc3c2)CC1 [saracatinib]
Outline: (§1)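 Aliquots of K562 cells (2×10^6 cells/mL) treated with 10 μM compound for 30 min were heated for 3 min over 48°C-58°C. After pooling and extraction in PBS with 0.5% NP-40 at 4°C, soluble protein from a 21,000xg, 90 min spin was quantified by TMTpro 16plex LC-MS/MS with channel sums equalised. Thermal stability is expressed against control samples, from duplicates, as a log2 fold change.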

Chains of the proteins cited; added tags and fusions are not shown. Lines headed by an entry give the natural chain unless they say otherwise; changes in a name come on top.
UniProt Q03060: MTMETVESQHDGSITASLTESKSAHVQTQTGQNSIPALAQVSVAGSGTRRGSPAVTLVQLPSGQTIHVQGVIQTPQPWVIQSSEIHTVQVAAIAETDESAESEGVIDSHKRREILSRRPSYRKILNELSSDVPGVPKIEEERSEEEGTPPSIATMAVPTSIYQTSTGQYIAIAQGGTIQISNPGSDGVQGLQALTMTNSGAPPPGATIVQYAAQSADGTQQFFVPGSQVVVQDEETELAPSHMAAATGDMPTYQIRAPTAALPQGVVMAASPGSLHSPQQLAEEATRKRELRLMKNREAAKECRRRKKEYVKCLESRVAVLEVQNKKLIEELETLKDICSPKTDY
UniProt Q96FN4: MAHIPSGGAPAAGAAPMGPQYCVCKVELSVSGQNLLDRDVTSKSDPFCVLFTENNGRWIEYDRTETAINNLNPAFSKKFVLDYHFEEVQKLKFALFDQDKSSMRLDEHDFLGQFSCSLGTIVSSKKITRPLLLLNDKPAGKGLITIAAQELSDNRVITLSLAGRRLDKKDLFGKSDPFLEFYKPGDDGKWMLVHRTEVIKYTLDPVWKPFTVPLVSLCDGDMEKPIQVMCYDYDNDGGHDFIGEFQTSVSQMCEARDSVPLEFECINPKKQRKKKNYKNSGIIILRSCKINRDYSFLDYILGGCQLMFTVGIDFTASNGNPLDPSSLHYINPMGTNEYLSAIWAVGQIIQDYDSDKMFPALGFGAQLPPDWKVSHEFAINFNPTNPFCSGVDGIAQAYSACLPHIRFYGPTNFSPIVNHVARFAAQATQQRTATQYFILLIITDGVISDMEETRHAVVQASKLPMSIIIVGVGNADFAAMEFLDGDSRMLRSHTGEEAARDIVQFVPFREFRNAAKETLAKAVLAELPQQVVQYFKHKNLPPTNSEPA
UniProt Q9Y678: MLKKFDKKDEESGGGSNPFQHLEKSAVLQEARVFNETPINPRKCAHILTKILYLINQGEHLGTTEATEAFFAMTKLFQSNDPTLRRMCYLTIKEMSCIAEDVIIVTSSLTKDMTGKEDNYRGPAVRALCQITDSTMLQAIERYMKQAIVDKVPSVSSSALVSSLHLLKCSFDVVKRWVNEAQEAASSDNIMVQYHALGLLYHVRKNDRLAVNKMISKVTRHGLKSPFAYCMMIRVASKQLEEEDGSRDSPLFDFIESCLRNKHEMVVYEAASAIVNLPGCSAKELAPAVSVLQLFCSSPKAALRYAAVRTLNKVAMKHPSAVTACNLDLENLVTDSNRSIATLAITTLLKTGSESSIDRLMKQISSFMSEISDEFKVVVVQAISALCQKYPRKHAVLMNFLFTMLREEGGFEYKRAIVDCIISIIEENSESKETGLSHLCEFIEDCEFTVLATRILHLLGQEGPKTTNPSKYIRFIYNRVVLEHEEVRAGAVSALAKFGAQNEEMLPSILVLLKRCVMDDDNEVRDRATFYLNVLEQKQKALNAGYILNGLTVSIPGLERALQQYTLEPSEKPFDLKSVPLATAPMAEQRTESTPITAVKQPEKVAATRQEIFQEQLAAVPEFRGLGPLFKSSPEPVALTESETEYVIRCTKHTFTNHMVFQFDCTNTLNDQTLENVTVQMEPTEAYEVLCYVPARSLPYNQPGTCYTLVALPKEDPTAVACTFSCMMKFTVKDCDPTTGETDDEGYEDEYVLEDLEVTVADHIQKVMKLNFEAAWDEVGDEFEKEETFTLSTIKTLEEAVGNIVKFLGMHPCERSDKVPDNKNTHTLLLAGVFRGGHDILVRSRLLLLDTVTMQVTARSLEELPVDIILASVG
UniProt P12109: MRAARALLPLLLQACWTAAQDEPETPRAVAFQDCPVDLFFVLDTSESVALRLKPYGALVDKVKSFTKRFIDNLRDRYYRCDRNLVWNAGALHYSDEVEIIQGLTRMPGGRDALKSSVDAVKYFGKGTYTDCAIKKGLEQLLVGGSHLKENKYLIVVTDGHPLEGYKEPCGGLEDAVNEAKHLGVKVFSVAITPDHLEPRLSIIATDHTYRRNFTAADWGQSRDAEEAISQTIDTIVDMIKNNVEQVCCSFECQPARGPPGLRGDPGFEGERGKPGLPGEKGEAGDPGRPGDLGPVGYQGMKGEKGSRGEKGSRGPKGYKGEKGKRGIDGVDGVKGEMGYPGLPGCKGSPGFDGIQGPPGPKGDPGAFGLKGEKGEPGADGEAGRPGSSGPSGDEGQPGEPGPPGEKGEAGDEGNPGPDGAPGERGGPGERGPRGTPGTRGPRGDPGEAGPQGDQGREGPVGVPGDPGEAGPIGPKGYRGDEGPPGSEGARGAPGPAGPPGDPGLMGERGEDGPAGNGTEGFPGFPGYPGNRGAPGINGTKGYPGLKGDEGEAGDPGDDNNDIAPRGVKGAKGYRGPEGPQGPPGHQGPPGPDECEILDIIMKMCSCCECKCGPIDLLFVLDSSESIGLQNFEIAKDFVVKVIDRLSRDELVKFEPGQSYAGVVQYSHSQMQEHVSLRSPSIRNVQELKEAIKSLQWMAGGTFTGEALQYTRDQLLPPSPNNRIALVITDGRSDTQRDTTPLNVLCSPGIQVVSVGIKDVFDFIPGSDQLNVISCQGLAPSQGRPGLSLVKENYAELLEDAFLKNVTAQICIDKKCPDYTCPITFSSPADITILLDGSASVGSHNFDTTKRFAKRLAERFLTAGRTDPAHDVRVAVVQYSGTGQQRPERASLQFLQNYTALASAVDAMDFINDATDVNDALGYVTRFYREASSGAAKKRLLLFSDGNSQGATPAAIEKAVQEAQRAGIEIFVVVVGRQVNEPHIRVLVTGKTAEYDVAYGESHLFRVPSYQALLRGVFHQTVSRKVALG
UniProt Q5HYK3: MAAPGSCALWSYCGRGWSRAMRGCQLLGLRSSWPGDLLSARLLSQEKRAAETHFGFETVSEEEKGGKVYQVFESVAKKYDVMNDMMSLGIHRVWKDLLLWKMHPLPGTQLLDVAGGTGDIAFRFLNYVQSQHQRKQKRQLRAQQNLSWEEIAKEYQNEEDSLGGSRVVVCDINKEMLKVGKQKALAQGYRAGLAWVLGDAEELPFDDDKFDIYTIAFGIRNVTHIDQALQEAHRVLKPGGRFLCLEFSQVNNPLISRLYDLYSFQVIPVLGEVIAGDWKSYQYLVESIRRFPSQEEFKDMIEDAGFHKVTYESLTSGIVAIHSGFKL
UniProt Q6UXH1: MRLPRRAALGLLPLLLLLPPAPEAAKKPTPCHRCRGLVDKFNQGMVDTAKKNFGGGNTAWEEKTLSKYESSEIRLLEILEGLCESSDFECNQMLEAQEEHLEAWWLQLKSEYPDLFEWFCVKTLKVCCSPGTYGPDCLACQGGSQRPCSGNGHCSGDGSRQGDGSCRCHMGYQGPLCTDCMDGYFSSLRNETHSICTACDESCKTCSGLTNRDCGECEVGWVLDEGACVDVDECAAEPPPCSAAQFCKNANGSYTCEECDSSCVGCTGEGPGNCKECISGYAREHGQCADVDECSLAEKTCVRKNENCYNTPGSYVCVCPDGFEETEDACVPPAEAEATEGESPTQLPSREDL
UniProt O95825: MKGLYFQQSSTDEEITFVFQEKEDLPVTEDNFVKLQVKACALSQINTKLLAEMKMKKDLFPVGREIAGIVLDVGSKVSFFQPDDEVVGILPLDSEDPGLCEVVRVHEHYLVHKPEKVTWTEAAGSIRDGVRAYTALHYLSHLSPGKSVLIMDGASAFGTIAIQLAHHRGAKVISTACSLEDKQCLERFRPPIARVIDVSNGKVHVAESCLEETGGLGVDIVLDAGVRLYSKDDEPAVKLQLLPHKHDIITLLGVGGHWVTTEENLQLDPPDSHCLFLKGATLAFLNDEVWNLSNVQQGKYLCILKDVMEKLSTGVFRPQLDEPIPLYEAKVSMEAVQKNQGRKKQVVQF
UniProt P53618: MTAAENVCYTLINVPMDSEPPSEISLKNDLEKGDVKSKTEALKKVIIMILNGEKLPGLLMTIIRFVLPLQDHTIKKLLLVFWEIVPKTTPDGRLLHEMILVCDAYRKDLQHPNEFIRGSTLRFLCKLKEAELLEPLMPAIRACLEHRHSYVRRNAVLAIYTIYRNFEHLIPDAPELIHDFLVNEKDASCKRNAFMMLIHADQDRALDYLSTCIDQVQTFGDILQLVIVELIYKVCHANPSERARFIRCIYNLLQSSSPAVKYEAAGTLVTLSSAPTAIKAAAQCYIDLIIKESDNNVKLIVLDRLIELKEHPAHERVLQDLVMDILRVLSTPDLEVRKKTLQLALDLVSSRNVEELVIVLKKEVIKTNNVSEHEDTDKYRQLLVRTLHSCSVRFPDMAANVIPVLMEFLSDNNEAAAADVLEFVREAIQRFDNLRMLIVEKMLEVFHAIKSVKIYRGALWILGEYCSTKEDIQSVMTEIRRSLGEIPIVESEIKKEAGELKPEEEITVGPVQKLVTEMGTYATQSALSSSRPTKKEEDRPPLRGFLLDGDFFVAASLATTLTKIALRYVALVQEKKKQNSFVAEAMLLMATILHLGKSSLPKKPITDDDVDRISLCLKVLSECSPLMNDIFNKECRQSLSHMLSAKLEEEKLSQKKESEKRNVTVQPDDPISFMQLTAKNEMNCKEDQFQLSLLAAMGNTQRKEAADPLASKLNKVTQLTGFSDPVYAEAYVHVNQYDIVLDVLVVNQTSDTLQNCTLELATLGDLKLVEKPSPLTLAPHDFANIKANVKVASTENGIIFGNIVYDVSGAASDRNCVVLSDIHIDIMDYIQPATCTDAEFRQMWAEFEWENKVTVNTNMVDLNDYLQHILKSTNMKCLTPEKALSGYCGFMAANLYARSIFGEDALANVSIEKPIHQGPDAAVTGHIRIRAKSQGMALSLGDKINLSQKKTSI
UniProt Q8N8Q8: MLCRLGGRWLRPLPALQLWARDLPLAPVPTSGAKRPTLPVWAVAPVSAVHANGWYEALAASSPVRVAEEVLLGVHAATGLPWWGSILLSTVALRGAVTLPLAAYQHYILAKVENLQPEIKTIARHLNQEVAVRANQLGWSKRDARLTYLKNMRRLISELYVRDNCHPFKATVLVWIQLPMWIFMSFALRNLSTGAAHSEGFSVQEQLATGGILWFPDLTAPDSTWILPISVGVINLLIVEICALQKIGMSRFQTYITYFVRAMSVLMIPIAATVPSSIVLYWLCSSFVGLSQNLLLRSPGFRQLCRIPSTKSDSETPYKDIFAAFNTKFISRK
UniProt O75534: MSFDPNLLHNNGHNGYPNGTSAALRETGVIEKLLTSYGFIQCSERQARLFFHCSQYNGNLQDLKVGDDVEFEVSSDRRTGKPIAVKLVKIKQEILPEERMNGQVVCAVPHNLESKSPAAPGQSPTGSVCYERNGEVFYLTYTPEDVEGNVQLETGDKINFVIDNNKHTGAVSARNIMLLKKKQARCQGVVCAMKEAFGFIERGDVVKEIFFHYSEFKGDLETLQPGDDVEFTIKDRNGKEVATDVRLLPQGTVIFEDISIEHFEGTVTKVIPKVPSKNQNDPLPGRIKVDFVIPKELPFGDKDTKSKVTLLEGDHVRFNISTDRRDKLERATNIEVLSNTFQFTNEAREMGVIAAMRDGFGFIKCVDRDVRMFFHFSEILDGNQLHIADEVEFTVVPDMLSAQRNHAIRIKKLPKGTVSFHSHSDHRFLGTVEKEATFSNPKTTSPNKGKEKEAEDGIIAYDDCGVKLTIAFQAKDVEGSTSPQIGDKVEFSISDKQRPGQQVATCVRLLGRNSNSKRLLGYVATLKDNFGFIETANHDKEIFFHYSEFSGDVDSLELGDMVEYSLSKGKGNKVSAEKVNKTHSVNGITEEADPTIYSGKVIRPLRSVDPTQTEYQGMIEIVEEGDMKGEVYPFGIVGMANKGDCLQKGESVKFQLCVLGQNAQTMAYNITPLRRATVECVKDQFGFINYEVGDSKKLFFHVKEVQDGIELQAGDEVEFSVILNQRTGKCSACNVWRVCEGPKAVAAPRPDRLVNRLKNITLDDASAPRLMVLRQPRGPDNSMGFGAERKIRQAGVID
UniProt Q8NI60: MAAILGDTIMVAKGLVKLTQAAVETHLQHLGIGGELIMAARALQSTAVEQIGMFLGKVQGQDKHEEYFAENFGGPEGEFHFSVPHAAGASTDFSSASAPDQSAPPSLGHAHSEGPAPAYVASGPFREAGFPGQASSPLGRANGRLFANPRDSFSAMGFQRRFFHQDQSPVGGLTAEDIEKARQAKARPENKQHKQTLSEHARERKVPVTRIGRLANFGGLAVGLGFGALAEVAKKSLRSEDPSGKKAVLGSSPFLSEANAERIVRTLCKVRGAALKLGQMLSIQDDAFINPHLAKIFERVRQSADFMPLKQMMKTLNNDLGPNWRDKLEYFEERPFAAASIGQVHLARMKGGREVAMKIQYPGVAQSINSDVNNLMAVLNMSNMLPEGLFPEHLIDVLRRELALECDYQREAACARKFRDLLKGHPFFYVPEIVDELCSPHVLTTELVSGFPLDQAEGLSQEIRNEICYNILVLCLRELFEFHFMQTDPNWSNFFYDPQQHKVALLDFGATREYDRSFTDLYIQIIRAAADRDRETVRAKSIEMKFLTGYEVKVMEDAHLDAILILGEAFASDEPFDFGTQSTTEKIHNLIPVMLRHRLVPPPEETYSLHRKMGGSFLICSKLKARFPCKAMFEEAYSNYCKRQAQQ

sotrastaurin = compound: CN1CCN(c2nc(C3=C(c4c[nH]c5ccccc45)C(=O)NC3=O)c3ccccc3n2)CC1 [sotrastaurin]
Outline: as §1

alvocidib = compound: CN1CC[C@H](c2c(O)cc(O)c3c(=O)cc(-c4ccccc4Cl)oc23)[C@H](O)C1 [alvocidib]
Outline: as §1

Tubastatin A = compound: CN1CCc2c(c3ccccc3n2Cc2ccc(C(=O)NO)cc2)C1 [Tubastatin A]
Outline: as §1

[1] = compound: CNC(=O)C1=CC=CC=C1NC2=NC(=NC=C2Cl)NC3=C(C=C(C=C3)N4CCOCC4)OC
Outline: as §1

defactinib = compound: CNC(=O)c1ccc(Nc2ncc(C(F)(F)F)c(NCc3nccnc3N(C)S(C)(=O)=O)n2)cc1 [defactinib]
Outline: as §1

rucaparib = compound: CNCc1ccc(-c2[nH]c3cc(F)cc4c3c2CCNC4=O)cc1 [rucaparib]
Outline: as §1

[2] = compound: CNc1nc(-c2ccc3c(N)n[nH]c3c2)cc(N2C[C@@H](C(=O)NC3CCCCC3)CC[C@H]2C)n1
Outline: as §1

encorafenib = compound: COC(=O)N[C@@H](C)CNc1nccc(-c2cn(C(C)C)nc2-c2cc(Cl)cc(NS(C)(=O)=O)c2F)n1 [encorafenib]
Outline: as §1

[3] = compound: COC(=O)[C@H](CCSC)NC(=O)C1=C(C=C(C=C1)NC[C@H](CS)N)C2=CC=CC=C2
Outline: as §1

| Target | log2 fold change (saracatinib) | log2 fold change (sotrastaurin) | log2 fold change (alvocidib) | log2 fold change (Tubastatin A) | log2 fold change [1] | log2 fold change (defactinib) | log2 fold change (rucaparib) | log2 fold change [2] | log2 fold change (encorafenib) | log2 fold change [3] |
| --- | --- | --- | --- | --- | --- | --- | --- | --- | --- | --- |
| COX11 (UniProt Q9Y6N1) | inactive: -0.054 | inactive: 0.067 | inactive: -0.082 | inactive: -0.128 | inactive: 0.01 | inactive: -0.043 | inactive: -0.021 | inactive: -0.009 | inactive: 0.003 | inactive: -0.141 |
| CREG1 (UniProt O75629) | inactive: 0.031 | inactive: 0.081 | inactive: 0.001 | inactive: 0.02 | inactive: 0.045 | inactive: 0.003 | inactive: -0.01 | inactive: -0.016 | inactive: -0.029 | inactive: -0.033 |
| COX7A2 (UniProt P14406) | inactive: -0.002 | inactive: 0.057 | inactive: 0 | inactive: 0.009 | inactive: 0.029 | inactive: 0 | inactive: -0.028 | inactive: -0.084 | inactive: -0.061 | inactive: 0.13 |
| CREM isoform 1 (UniProt Q03060) | inactive: 0.067 | inactive: -0.013 | inactive: 0.146 | inactive: -0.121 | inactive: 0.005 | inactive: -0.032 | inactive: -0.068 | inactive: -0.057 | inactive: -0.025 | inactive: 0.014 |
| CPNE2 (UniProt Q96FN4) | inactive: 0.046 | inactive: 0.031 | inactive: 0.039 | inactive: -0.009 | inactive: 0.165 | inactive: 0.008 | inactive: -0.154 | inactive: -0.06 | inactive: 0.065 | inactive: -0.058 |
| CPNE3 (UniProt O75131) | inactive: 0.042 | inactive: -0.034 | inactive: -0.067 | inactive: -0.08 | inactive: 0.009 | inactive: -0.065 | inactive: -0.027 | inactive: -0.017 | inactive: 0.032 | inactive: 0.017 |
| CORO7 isoform 3 (UniProt P57737) | inactive: 0.011 | inactive: -0.05 | inactive: 0.019 | inactive: -0.014 | inactive: 0.001 | inactive: -0.025 | inactive: -0.014 | inactive: -0.011 | inactive: 0.042 | inactive: 0.008 |
| COPG1 (UniProt Q9Y678) | inactive: 0.011 | inactive: -0.026 | inactive: -0.034 | inactive: -0.031 | inactive: 0.029 | inactive: -0.017 | inactive: -0.012 | inactive: 0.019 | inactive: 0.049 | inactive: -0.013 |
| CPOX (UniProt P36551) | inactive: 0.003 | inactive: 0.058 | inactive: 0.031 | inactive: -0.02 | inactive: 0.037 | inactive: 0.029 | inactive: -0.061 | inactive: 0.017 | inactive: 0.011 | inactive: 0.01 |
| CPVL (UniProt Q9H3G5) | inactive: -0.059 | inactive: 0.078 | inactive: 0.114 | inactive: -0.079 | inactive: -0.059 | inactive: 0.023 | inactive: -0.284 | inactive: -0.058 | inactive: -0.047 | inactive: 0.045 |
| COQ10B (UniProt Q9H8M1) | inactive: 0.049 | inactive: 0.2 | inactive: 0.284 | – | – | – | inactive: -0.204 | inactive: -0.212 | inactive: -0.137 | – |
| COL6A1 (UniProt P12109) | inactive: 0.069 | inactive: 0.242 | inactive: 0.035 | inactive: 0 | inactive: 0.067 | inactive: -0.04 | inactive: -0.117 | inactive: 0.006 | inactive: -0.005 | inactive: 0.269 |
| CORO1B (UniProt Q9BR76) | inactive: 0.007 | inactive: -0.046 | inactive: -0.084 | inactive: 0.012 | inactive: 0.039 | inactive: -0.029 | inactive: -0.009 | inactive: 0.023 | inactive: 0.047 | inactive: -0.017 |
| COMMD10 (UniProt Q9Y6G5) | inactive: 0.067 | inactive: -0.011 | inactive: -0.041 | inactive: 0.013 | inactive: -0.007 | inactive: -0.033 | inactive: -0.027 | inactive: -0.053 | inactive: 0.019 | inactive: -0.049 |
| CRYAB (UniProt P02511) | inactive: -0.091 | inactive: 0.036 | inactive: 0.142 | – | – | inactive: -0.092 | inactive: 0.072 | inactive: 0 | inactive: -0.049 | inactive: -0.085 |
| CSNK2B (UniProt P67870) | inactive: 0.074 | inactive: 0.036 | – | inactive: 0.021 | inactive: 0.246 | inactive: -0.09 | inactive: -0.116 | inactive: -0.031 | inactive: 0.024 | inactive: 0.038 |

2 neighbouring entries already listed:

| Target | log2 fold change (saracatinib) | log2 fold change (sotrastaurin) | log2 fold change (alvocidib) | log2 fold change (Tubastatin A) | log2 fold change [1] | log2 fold change (defactinib) | log2 fold change (rucaparib) | log2 fold change [2] | log2 fold change (encorafenib) | log2 fold change [3] |
| --- | --- | --- | --- | --- | --- | --- | --- | --- | --- | --- |
| COQ10B (UniProt Q9H8M1) | inactive: 0.049 | inactive: 0.2 | inactive: 0.284 | – | – | – | inactive: -0.204 | inactive: -0.212 | inactive: -0.137 | – |
| COL6A1 (UniProt P12109) | inactive: 0.069 | inactive: 0.242 | inactive: 0.035 | inactive: 0 | inactive: 0.067 | inactive: -0.04 | inactive: -0.117 | inactive: 0.006 | inactive: -0.005 | inactive: 0.269 |

(continued)

| Target | log2 fold change (saracatinib) | log2 fold change (sotrastaurin) | log2 fold change (alvocidib) | log2 fold change (Tubastatin A) | log2 fold change [1] | log2 fold change (defactinib) | log2 fold change (rucaparib) | log2 fold change [2] | log2 fold change (encorafenib) | log2 fold change [3] |
| --- | --- | --- | --- | --- | --- | --- | --- | --- | --- | --- |
| COLGALT2 (UniProt Q8IYK4) | inactive: -0.125 | inactive: -0.048 | inactive: 0.059 | inactive: 0.043 | inactive: -0.015 | inactive: 0.094 | inactive: 0.02 | inactive: 0.007 | inactive: 0.095 | inactive: -0.018 |
| COQ5 (UniProt Q5HYK3) | inactive: -0.031 | inactive: 0.107 | inactive: -0.027 | inactive: 0.005 | inactive: 0.045 | inactive: -0.005 | inactive: -0.044 | inactive: -0.035 | inactive: -0.069 | inactive: 0.032 |
| COX7B (UniProt P24311) | inactive: 0.174 | inactive: 0.058 | – | inactive: -0.087 | inactive: 0.059 | inactive: 0 | inactive: -0.02 | inactive: -0.049 | inactive: -0.036 | inactive: -0.073 |
| CRELD2 isoform 5 (UniProt Q6UXH1) | inactive: -0.002 | inactive: -0.009 | inactive: 0.036 | inactive: -0.033 | inactive: -0.022 | inactive: 0.018 | inactive: -0.008 | inactive: 0.028 | inactive: -0.029 | inactive: 0.042 |
| CRYZL1 (UniProt O95825) | inactive: 0.032 | inactive: 0.039 | inactive: 0.008 | inactive: -0.027 | inactive: -0.028 | inactive: -0.014 | inactive: -0.048 | inactive: -0.021 | inactive: -0.043 | inactive: 0.015 |
| COPB1 (UniProt P53618) | inactive: 0.014 | inactive: -0.06 | inactive: -0.049 | inactive: -0.002 | inactive: 0.01 | inactive: -0.042 | inactive: -0.019 | inactive: 0.007 | inactive: 0.076 | inactive: -0.033 |
| CRCP (UniProt O75575) | inactive: 0.015 | inactive: -0.001 | inactive: 0.007 | inactive: 0.165 | – | – | inactive: -0.055 | inactive: -0.1 | inactive: -0.04 | – |
| COX18 (UniProt Q8N8Q8) | inactive: 0.075 | inactive: 0.032 | inactive: 0.011 | inactive: -0.005 | inactive: 0.034 | inactive: 0 | inactive: 0.018 | inactive: -0.013 | inactive: -0.013 | inactive: 0.008 |
| COX5A (UniProt P20674) | inactive: -0.063 | inactive: 0.025 | – | inactive: -0.015 | inactive: 0.043 | inactive: -0.016 | inactive: 0.011 | inactive: 0.007 | inactive: -0.036 | inactive: 0.11 |
| CPT1A (UniProt P50416) | inactive: 0.021 | inactive: 0.075 | active: 0.578 | inactive: 0.142 | inactive: 0.161 | inactive: -0.087 | inactive: 0.054 | inactive: 0.148 | inactive: 0.069 | inactive: -0.04 |
| COMMD9 (UniProt Q9P000) | inactive: -0.013 | inactive: -0.007 | inactive: -0.048 | inactive: 0.072 | inactive: -0.012 | inactive: -0.039 | inactive: -0.101 | inactive: 0.028 | inactive: 0.01 | inactive: -0.018 |
| COX6C (UniProt P09669) | inactive: -0.024 | inactive: 0.037 | inactive: -0.017 | inactive: -0.017 | inactive: 0.018 | inactive: 0.017 | inactive: -0.149 | inactive: -0.044 | inactive: -0.087 | inactive: 0.002 |
| CSDE1 isoform 4 (UniProt O75534) | inactive: -0.101 | inactive: -0.262 | inactive: 0.13 | inactive: 0.097 | inactive: 0.004 | inactive: 0.052 | inactive: 0.406 | inactive: 0.117 | inactive: 0.214 | inactive: -0.078 |
| CPNE1 (UniProt Q99829) | inactive: 0.08 | inactive: 0.006 | inactive: 0.001 | inactive: -0.025 | inactive: -0.01 | inactive: -0.017 | inactive: -0.003 | inactive: -0.028 | inactive: 0.017 | inactive: 0.05 |
| COQ8A (UniProt Q8NI60) | inactive: 0.07 | inactive: -0.008 | inactive: -0.056 | inactive: -0.008 | inactive: 0.075 | inactive: -0.068 | inactive: -0.08 | inactive: 0.061 | inactive: 0.063 | inactive: -0.061 |

— the supplement of paper PMC10849652
